Test results reported in patent US9885050B2, “Molecular affinity clamp technology and uses thereof” (The University of Chicago, priority 2007, dated 2018).
Some results were stated once for a whole list of compounds, not compound by compound.

The chains behind the UniProt entries cited, without tags or fusion partners. Where a name states a change or a piece, a line headed by the entry shows the natural chain unless it says otherwise.
UniProt O00192: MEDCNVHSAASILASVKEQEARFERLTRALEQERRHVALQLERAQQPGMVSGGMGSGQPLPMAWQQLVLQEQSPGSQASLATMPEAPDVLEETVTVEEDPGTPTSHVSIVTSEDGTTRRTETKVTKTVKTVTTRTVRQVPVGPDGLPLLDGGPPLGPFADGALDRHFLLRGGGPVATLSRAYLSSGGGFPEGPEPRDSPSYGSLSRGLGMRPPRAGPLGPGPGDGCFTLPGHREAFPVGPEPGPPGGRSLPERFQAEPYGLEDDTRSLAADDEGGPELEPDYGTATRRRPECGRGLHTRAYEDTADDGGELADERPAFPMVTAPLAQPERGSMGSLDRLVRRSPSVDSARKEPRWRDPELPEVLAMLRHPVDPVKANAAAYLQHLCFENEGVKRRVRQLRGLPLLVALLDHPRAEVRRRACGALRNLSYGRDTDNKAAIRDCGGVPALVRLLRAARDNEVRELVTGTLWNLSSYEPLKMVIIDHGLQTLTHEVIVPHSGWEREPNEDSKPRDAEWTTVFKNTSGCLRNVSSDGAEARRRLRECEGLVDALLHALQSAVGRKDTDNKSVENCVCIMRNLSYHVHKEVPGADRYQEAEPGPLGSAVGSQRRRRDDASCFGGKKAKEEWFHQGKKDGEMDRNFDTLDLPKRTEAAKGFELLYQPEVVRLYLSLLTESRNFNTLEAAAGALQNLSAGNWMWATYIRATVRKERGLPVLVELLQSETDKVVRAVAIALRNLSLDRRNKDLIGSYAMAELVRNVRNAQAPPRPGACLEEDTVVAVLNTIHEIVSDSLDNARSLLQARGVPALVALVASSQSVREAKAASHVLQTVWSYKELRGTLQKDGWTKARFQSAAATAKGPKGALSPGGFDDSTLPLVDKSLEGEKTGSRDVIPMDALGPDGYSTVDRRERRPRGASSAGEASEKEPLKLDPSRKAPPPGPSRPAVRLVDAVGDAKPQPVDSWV

Target: T1, ARVCF peptide (PQPVDSWV-COOH) (Homo sapiens, UniProt O00192)
T1 construct: made in house; host or cells: E. coli
Assay: Surface plasmon resonance (SPR, BIAcore) analysis of motif binding, ARVCF peptide
Description: Using semi-automated methods, the phage display library was sorted using an eight-residue motif (SEQ ID NO: 148) corresponding to the ARVCF C-terminus. […] The maximal motif/affinity concentrations are indicated. In B, C and F, the on and off rates are also shown on the left and right sides, respectively. […] After four rounds of sorting, two clones with high affinity were identified to the ARVCF peptide motif. ePDZ-a (SEQ ID NO: 149) and ePDZ-b (SEQ ID NO: 150) are thus (referred to as “enhanced PDZ-a” and “enhanced PDZ-b” or simply “ePDZ-a” and “ePDZ-b” respectively) potential affinity clamp candidates.
These two clones were characterized as soluble proteins.
One method to improve affinity of the affinity clamp is to improve the interaction interface of the enhancer domain (e.g. the FN3 domain). […] The two second-generation variants, ePDZ-b1 (SEQ ID NO: 151) and ePDZ-b2 (SEQ ID NO: 143), were prepared as protein samples and their binding properties were analyzed using SPR. […] The affinity enhancement primarily originated from reduced dissociation rates.
A disulfide-constrained peptide was used as an enhancer domain. A peptide-PDZ affinity clamp was designed in which the diversified peptide segment was N-terminal connected to the circularly permutated PDZ domain (cpPDZ) described above. […]

| Substance | affinity enhancement relative to the original PDZ protein |
| --- | --- |
| ePDZ-b1: second-generation affinity-matured variant of ePDZ-b, SEQ ID NO: 151 (HYNYHYYS) | 5,000-6,000 fold |
| ePDZ-b2: second-generation affinity-matured variant of ePDZ-b, SEQ ID NO: 143 (SYYGVS) | 5,000-6,000 fold |
